Results: article PMC11420629 (2024)
These are yes or no findings as the source states them, for the method shown. In cells and extracts the contact can be indirect. Some results given as binding are weak or reduced against the parent protein; the word gives no strength.

Sequences of proteins named here, by UniProt entry; tags and fusion partners are left off. Residues count along the entry.
UniProt P23818, residues 19-907: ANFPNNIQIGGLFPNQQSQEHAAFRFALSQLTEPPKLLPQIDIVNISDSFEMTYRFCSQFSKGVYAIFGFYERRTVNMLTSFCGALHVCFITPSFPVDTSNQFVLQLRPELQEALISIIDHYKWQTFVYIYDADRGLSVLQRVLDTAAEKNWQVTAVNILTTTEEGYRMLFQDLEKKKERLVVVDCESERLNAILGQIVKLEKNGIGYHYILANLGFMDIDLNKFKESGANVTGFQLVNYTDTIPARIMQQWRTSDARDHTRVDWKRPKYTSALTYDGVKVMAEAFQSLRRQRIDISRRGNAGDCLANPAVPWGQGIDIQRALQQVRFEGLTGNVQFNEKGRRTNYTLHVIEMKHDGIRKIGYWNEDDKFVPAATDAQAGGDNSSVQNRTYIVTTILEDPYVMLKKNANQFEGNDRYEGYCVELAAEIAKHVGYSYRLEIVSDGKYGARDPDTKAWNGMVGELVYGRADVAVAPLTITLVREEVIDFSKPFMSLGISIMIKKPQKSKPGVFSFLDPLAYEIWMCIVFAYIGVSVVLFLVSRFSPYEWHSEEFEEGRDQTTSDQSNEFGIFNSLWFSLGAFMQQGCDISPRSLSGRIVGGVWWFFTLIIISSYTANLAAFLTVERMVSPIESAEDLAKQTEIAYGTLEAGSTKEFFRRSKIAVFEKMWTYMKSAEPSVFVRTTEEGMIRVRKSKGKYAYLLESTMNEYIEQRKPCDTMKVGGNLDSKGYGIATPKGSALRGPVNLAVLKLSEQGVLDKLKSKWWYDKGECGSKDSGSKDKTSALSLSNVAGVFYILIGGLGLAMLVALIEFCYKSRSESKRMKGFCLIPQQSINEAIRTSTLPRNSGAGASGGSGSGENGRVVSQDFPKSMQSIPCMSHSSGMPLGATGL

How the values were obtained:
[1] = target: AMPA receptor subunit GluR1, endogenous in mouse brain and neurons (mouse (endogenous in C57BL/6 brain tissue and neuronal cells)) (UniProt P23818); assay: co-IP; endogenous proteins from mouse cortex and hippocampus in non-denaturing lysis buffer; IP with anti-GluR1 or anti-CIRP (IgG control) on Protein A/G beads overnight at 4°C, Western blot of the reciprocal protein; mice under NN, 14 days HH, HH + Tat-C16, and Cirp +/+, +/- and -/- genotypes
[2] = target: AMPA receptor subunit GluR1, endogenous in mouse brain and neurons (mouse (endogenous in C57BL/6 brain tissue and neuronal cells)) (UniProt P23818); assay: co-IP; endogenous proteins from neuronal cells, control or 1% O2 for 3 h; non-denaturing lysis buffer, Protein A/G beads, Western blot

- binding [1]: binds
- binding [2]: binds
B1: full‐length CIRP protein (SPR) (natural protein)
chain: MASDEGKLFVGGLSFDTNEQALEQVFSKYGQISEVVVVKDRETQRSRGFGFVTFENIDDAKDAMMAMNGKSVDGRQIRVDQAGKSSDNRSRGYRGGSAGGRGFFRGGRSRGRGFSRGGGDRGYGGGRFESRSGGYGGSRDYYASRSQGGSYGYRSSGGSYRDSYDSYATHNE
